Data reported in publication PMC12817480, “Phospho‐Proteomics Identifies D‐Group MAP Kinases as Substrates of the Arabidopsis Tyrosine Phosphatase RLPH2” (Plant Direct, 2026).
These are yes or no findings as the source states them, for the method shown. Some binding calls cover weakened binding; strength is not graded here. Sequences can lack the tags named with a protein.

Protein sequences, listed by entry. Tags and fused reporters are not part of them.
UniProt O82733: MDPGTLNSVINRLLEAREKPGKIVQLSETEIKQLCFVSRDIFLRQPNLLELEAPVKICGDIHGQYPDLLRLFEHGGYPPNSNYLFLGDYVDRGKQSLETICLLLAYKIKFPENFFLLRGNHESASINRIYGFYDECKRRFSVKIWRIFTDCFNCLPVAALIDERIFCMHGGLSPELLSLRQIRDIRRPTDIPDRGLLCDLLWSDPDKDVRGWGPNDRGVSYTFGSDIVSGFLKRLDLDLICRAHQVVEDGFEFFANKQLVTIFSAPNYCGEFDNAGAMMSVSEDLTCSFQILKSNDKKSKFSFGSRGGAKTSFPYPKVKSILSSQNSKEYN

Biological target: T1, Purified MPK9‐V5‐His6 with the RVSF motif maintained (MPK9^RVSF), as used with PP1 (Arabidopsis thaliana) (UniProt Q9LV37)
T1 sequence: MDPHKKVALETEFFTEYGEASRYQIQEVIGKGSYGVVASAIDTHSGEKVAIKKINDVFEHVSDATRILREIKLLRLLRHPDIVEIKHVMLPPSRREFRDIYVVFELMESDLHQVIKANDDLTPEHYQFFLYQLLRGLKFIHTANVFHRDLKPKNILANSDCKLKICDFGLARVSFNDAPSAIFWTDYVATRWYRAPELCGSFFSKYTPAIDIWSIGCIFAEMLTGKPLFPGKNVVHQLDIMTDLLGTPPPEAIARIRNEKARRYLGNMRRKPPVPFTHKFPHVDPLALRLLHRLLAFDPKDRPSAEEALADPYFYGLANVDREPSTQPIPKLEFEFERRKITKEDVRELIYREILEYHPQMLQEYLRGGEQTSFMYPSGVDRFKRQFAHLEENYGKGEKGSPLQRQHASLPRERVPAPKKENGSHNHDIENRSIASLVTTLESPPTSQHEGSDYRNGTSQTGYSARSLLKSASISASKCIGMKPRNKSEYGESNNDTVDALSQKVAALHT
Assay: far-Western, overlay or dot blot; MPK9^RVXF and MPK9^RASA run on SDS‐PAGE, blotted to nitrocellulose, probed with PP1 (TOPP) isoforms (2 μg/mL) for 4 h in TBS plus 5% milk powder; PP1 detected with anti‐TOPP antibody; both purified

In the case of “Arabidopsis PP1 isoform 7 (TOPP7) (from UniProt O82733 1-331) (enzyme)”, the binding is reported as “binds”.
